Reference: publication PMC13221179
Like-named read-outs stand apart in the source and are kept apart here. No constants are given. Whether binding was seen depends on the method and setting. In cells and extracts the contact can be indirect. Some binding calls cover weakened binding; strength is not graded here.

Legend:
Test in all cases: co-IP
[1] = target: Flag-tagged E3 ubiquitin protein ligase Itchy homolog (ITCH) (human) (UniProt Q96J02)
[2] = target: Flag-tagged SARS-CoV-2 membrane protein M (SARS-CoV-2) (UniProt P0DTC5)
[3] = target: Flag-tagged SARS-CoV-2 envelope protein E (SARS-CoV-2) (UniProt P0DTC4)
[4] = target: Flag-tagged SARS-CoV-2 membrane protein M (SARS-CoV-2) (UniProt P0DTC5); remark: listed apart in the source

s-tag-fused SARS-CoV-2 envelope protein E (from UniProt P0DTC4 1-75)
binding [1]: binds
binding [2]: binds

RTN3, endogenous in HEK293 cells (from UniProt O95197 1-1032)
binding [2]: binds

s-tag-fused SARS-CoV-2 membrane protein M (from UniProt P0DTC5 1-222)
binding [1]: binds
binding [3]: binds

B1: NDP52, endogenous in HEK293 cells (protein, UniProt Q13137 1-446)
chain: MEETIKDPPTSAVLLDHCHFSQVIFNSVEKFYIPGGDVTCHYTFTQHFIPRRKDWIGIFRVGWKTTREYYTFMWVTLPIDLNNKSAKQQEVQFKAYYLPKDDEYYQFCYVDEDGVVRGASIPFQFRPENEEDILVVTTQGEVEEIEQHNKELCKENQELKDSCISLQKQNSDMQAELQKKQEELETLQSINKKLELKVKEQKDYWETELLQLKEQNQKMSSENEKMGIRVDQLQAQLSTQEKEMEKLVQGDQDKTEQLEQLKKENDHLFLSLTEQRKDQKKLEQTVEQMKQNETTAMKKQQELMDENFDLSKRLSENEIICNALQRQKERLEGENDLLKRENSRLLSYMGLDFNSLPYQVPTSDEGGARQNPGLAYGNPYSGIQESSSPSPLSIKKCPICKADDICDHTLEQQQMQPLCFNCPICDKIFPATEKQIFEDHVFCHSL
binding [4]: binds
